Data source: PubChem BioAssay AID504764 (Drosophila RNAi Screening Center, 2011)
The screen tested about 22,000 reagents; below is a random part of those with a known target gene and a result. In the full data, 403 (1.9%) got an active call. 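Unnormalised raw counts per well; ratio z-scores behind the hit calls and whether each hit raises or lowers signal are not deposited.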 A plus sign joins genes that one reagent is predicted to hit. Not given: the amount of reagent.

Assay: 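Genome-wide screen for regulators of Notch-driven gene expression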 (primary screen)
Cell system: Drosophila Kc167 cells
Reagent: long dsRNA against Drosophila genes
Time to read-out: about 5 days (4 days dsRNA, then 24 h after transfection)
Conditions: transfection of constitutively active membrane-tethered Notch lacking the extracellular domain, read 24 h later
Read-out: 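Firefly luciferase from an E(spl)m3 reporter with active Notch, plus control-promoter and uninduced reporter wells for normalisation; unnormalised counts, duplicate wells a and b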
Direction: induced reporter light, run 1, well a and induced reporter light, run 1, well b: higher = more light from the Notch target reporter with active Notch; control promoter light, run 1, well a and control promoter light, run 1, well b: higher = more light from the viral control promoter (cell number, transfection, viability); uninduced reporter light, run 1, well a: higher = more light from the Notch target reporter without active Notch
Active means: 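Wells with low control signal or poorly matching duplicates excluded; duplicates averaged; per source plate, z beyond ±2 for induced/control log2 ratio or beyond ±1.8 for induced/uninduced marks a hit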
Meaning of the calls: active = modifier hit (raised or lowered Notch signal); inactive = not a hit

target | DRSC id | induced reporter light, run 1, well a | induced reporter light, run 1, well b | control promoter light, run 1, well a | control promoter light, run 1, well b | uninduced reporter light, run 1, well a | outcome
ACXA | DRSC00844 | 1.42e5 | 1.36e5 | 1.35e5 | 1.60e5 | 11030 | inactive
Mip | DRSC10639 | 40650 | 34805 | 13242 | 18830 | 6060 | inactive
gzl | DRSC12517 | 1.51e5 | 1.83e5 | 1.39e5 | 1.34e5 | 11695 | inactive
CG42534 | DRSC14722 | 17400 | 13840 | 16770 | 15990 | 4115 | inactive
CG42534 | DRSC14759 | 14755 | 12900 | 15585 | 15990 | 4225 | inactive
CG42534 | DRSC16072 | 1.30e5 | 1.17e5 | 1.75e5 | 1.65e5 | 10065 | inactive
CG10561 | DRSC02068 | 2.10e5 | 2.04e5 | 1.79e5 | 1.93e5 | 16665 | inactive
hiw | DRSC20338 | 86975 | 75210 | 1.02e5 | 99000 | 10705 | inactive
hiw | DRSC20339 | 11150 | 10945 | 9930 | 7325 | 3015 | inactive
CG11714 | DRSC09857 | 97075 | 99265 | 89120 | 28395 | 8350 | inactive
Hmg-2 | DRSC04554 | 78725 | 81110 | 71375 | 74880 | 7220 | inactive
wuho | DRSC18101 | 1.77e5 | 1.74e5 | 3.24e5 | 2.92e5 | 10428 | inactive
Gbp2 | DRSC06069 | 92335 | 1.16e5 | 1.48e5 | 1.85e5 | 9882 | inactive
Ilp1 | DRSC10174 | 1.80e5 | 1.55e5 | 2.14e5 | 1.56e5 | 7405 | inactive
Ntmt | DRSC06624 | 1.80e5 | 1.77e5 | 1.76e5 | 2.03e5 | 16170 | inactive
Sap-r | DRSC16849 | 1.68e5 | 1.89e5 | 2.45e5 | 2.24e5 | 13365 | inactive
CG4362 | DRSC15567 | 1.91e5 | 1.51e5 | 1.63e5 | 1.62e5 | 10705 | inactive
Sf3b2 | DRSC00619 | 18445 | 13375 | 21480 | 22570 | 1210 | inactive
GlcAT-P | DRSC10603 | 90655 | 1.30e5 | 1.05e5 | 47360 | 11285 | inactive
GlcAT-P | DRSC10604 | 1.63e5 | 1.66e5 | 2.97e5 | 2.49e5 | 11438 | inactive
CG17440 | DRSC18126 | 1.20e5 | 98515 | 1.89e5 | 1.54e5 | 8060 | inactive
CG10877 | DRSC14274 | 1.62e5 | 1.68e5 | 1.82e5 | 1.72e5 | 11155 | inactive
CG42336 | DRSC05273 | 1.60e5 | 2.02e5 | 2.44e5 | 2.60e5 | 21180 | inactive
CG42336 | DRSC06332 | 1.07e5 | 1.33e5 | 1.42e5 | 1.51e5 | 10865 | inactive
CG42336 | DRSC06333 | 1.14e5 | 1.20e5 | 1.35e5 | 1.36e5 | 11200 | inactive
uex | DRSC20784 | 2.03e5 | 2.08e5 | 3.45e5 | 3.27e5 | 16280 | inactive
uex | DRSC20786 | 2.52e5 | 2.36e5 | 3.89e5 | 4.03e5 | 18850 | inactive
gammaSnap2 | DRSC15992 | 77000 | 75445 | 1.04e5 | 70880 | 3238 | inactive
CG4691 | DRSC01950 | 2.06e5 | 2.07e5 | 1.22e5 | 1.34e5 | 14785 | inactive
MRP | DRSC02942 | 2.06e5 | 2.22e5 | 2.03e5 | 1.97e5 | 19520 | inactive
Pisd | DRSC15935 | 1.55e5 | 1.76e5 | 1.77e5 | 2.28e5 | 12635 | inactive
Cyp6g2 | DRSC07387 | 96375 | 1.07e5 | 1.30e5 | 1.47e5 | 9855 | inactive
shams | DRSC16590 | 1.71e5 | 1.65e5 | 1.89e5 | 2.27e5 | 14240 | inactive
cni | DRSC03512 | 1.60e5 | 1.97e5 | 1.53e5 | 2.05e5 | 15310 | inactive
l(2)k14505 | DRSC03106 | 1.75e5 | 1.95e5 | 1.80e5 | 2.01e5 | 15492 | inactive
ND-75 | DRSC18686 | 1.42e5 | 1.30e5 | 2.60e5 | 2.12e5 | 8950 | inactive
RpS16 | DRSC04442 | 78985 | 85130 | 86290 | 68310 | 6610 | inactive
Ir48b | DRSC06320 | 1.14e5 | 1.26e5 | 1.88e5 | 1.96e5 | 12185 | inactive
arr | DRSC07451 | 1.18e5 | 1.09e5 | 1.29e5 | 1.64e5 | 11145 | inactive
CG8507 | DRSC16435 | 87105 | 1.07e5 | 1.13e5 | 75200 | 4650 | inactive
CG8326 | DRSC20103 | 98545 | 1.01e5 | 87860 | 52960 | 8065 | inactive
CG30432 | DRSC04833 | 77940 | 85090 | 1.26e5 | 1.42e5 | 4925 | inactive
CG12126 | DRSC06103 | 2.13e5 | 1.86e5 | 2.50e5 | 2.32e5 | 16660 | inactive
ND-B14.5AL | DRSC11795 | 1.43e5 | 1.03e5 | 1.25e5 | 1.12e5 | 11770 | inactive
CG33775 | DRSC05353 | 1.77e5 | 1.83e5 | 2.90e5 | 3.04e5 | 17005 | inactive
CG8051 | DRSC20077 | 82250 | 92135 | 79790 | 1.08e5 | 8820 | inactive
Su(var)2-HP2 | DRSC06204 | 1.59e5 | 1.54e5 | 1.51e5 | 1.77e5 | 12178 | inactive
CG30429 | DRSC04040 | 1.44e5 | 1.59e5 | 2.48e5 | 2.35e5 | 9230 | inactive
CG13748 | DRSC06419 | 1.75e5 | 2.10e5 | 2.08e5 | 2.30e5 | 17395 | inactive
Ir75b | DRSC10189 | 1.73e5 | 1.71e5 | 2.09e5 | 1.68e5 | 7015 | inactive
peb | DRSC18817 | 63300 | 53175 | 82455 | 98555 | 8520 | inactive
Nup107 | DRSC01999 | 65945 | 75960 | 54575 | 65330 | 9370 | inactive
Cyp4d21 | DRSC03305 | 1.80e5 | 1.62e5 | 1.81e5 | 1.92e5 | 15530 | inactive
trc | DRSC11406 | 53900 | 44165 | 31375 | 31280 | 2820 | inactive
CG15922 | DRSC15128 | 2.01e5 | 1.83e5 | 1.58e5 | 1.82e5 | 12555 | inactive
CG10165 | DRSC02017 | 1.95e5 | 1.94e5 | 1.67e5 | 1.94e5 | 15045 | inactive
Rim | DRSC16224 | 1.69e5 | 1.67e5 | 2.02e5 | 2.08e5 | 14255 | inactive
Rim | DRSC16225 | 12815 | 11192 | 13810 | 15100 | 3738 | inactive
Rim | DRSC16226 | 1.50e5 | 1.67e5 | 1.80e5 | 1.90e5 | 15135 | inactive
Rim | DRSC16227 | 2.23e5 | 1.97e5 | 1.89e5 | 2.00e5 | 14515 | inactive
CG4297 | DRSC00651 | 1.03e5 | 1.08e5 | 1.08e5 | 58550 | 7638 | inactive
CG14692 | DRSC14915 | 1.19e5 | 1.56e5 | 1.23e5 | 88760 | 6585 | inactive
GatC + PolG2 | DRSC03312 | 2.20e5 | 2.07e5 | 1.91e5 | 1.75e5 | 16000 | inactive
Cdk7 | DRSC18451 | 1.17e5 | 1.24e5 | 3.34e5 | 2.59e5 | 10485 | inactive

Limited to “uninduced reporter light, run 1, well a” (11 entries from above):
CG4691 [DRSC01950]: 14785
MRP [DRSC02942]: 19520
Pisd [DRSC15935]: 12635
Cyp6g2 [DRSC07387]: 9855
shams [DRSC16590]: 14240
cni [DRSC03512]: 15310
l(2)k14505 [DRSC03106]: 15492
ND-75 [DRSC18686]: 8950
RpS16 [DRSC04442]: 6610
Ir48b [DRSC06320]: 12185
arr [DRSC07451]: 11145
